Assay results: US8329429B2, “Method of enhancing recombinant protein production” (Induce Biologics Inc., priority 2007, dated 2012)
Part of at least one peptide drawing is inferred or uncertain, most often the ends.

Tests used:
Type in all cases: cell-based, Chinese hamster
[1] = system: CHO-BMP-2 cells; test: hBMP-2 ELISA of conditioned medium from CHO-BMP-2 cells incubated with furin inhibitor 9DR (short term)
[2] = system: CHO-BMP-2 cells; test: proBMP-2 ELISA of conditioned medium from CHO-BMP-2 cells incubated with 9DR (short term)
[3] = system: CHO-BMP-2 cells; test: in vitro BMP activity (C2C12 ALP) of conditioned medium from CHO-BMP-2 cells incubated with 9DR; details: all 9DR-treated groups
[4] = system: CHO-BMP-2 cells; test: long-term CHO-BMP-2 cultures in CELLine flasks with or without 9DR, BMP-2 and proBMP-2 ELISA
[5] = system: CHO-BMP-2 cells; test: ELISA of intracellular BMP-2 and proBMP-2 in CHO-BMP-2 cell lysates; details: 20 nmol/ml 9DR, 24, 48 and 72 hr, p<0.05
[6] = 9DR concentration increased over 20 nmol/ml
[7] = 20 nmol/ml 9DR, CELLine flasks, all media collections
[8] = 9DR increased from 20 to 60 nmol/ml
[9] = treatments interchanged between flasks, four media collections

For `N=C(N)NCCC[C@@H](N)C(=O)N[C@H](CCCNC(=N)N)C(=O)N[C@H](CCCNC(=N)N)C(=O)N[C@H](CCCNC(=N)N)C(=O)N[C@H](CCCNC(=N)N)C(=O)N[C@H](CCCNC(=N)N)C(=O)N[C@H](CCCNC(=N)N)C(=O)N[C@H](CCCNC(=N)N)C(=O)N[C@H](CCCNC(=N)N)C(N)=O` [9DR, nona-D-arginine amide], the “BMP-2 in conditioned medium compared to the control group” value ([1]; 20 nmol/ml 9DR, 24 hr incubation, ANOVA P<0.01) was 6 fold, the “amount of BMP-2 in conditioned medium” value [1, 6] was “slight decrease in the overall amount of BMP-2” and the “amount of BMP-2 in conditioned medium versus control group” value ([1]; all 9DR-treated groups, up to 80 nmol/ml, 24 hr) was “equivalent or higher amounts of BMP-2 than the control group”. For the same compound, the “proBMP-2 in conditioned medium” value ([2]; 20 nmol/ml 9DR (highest amount)) was 848 ng/mL, the “proBMP-2 in conditioned medium compared to the control” value ([2]; 20 nmol/ml 9DR, P<0.01) was “approximately 40 fold” and the “proBMP-2 concentration in conditioned medium” value [2, 6] was “slightly decreased”. For the same compound, the “amount of proBMP-2 in conditioned medium versus control group” value ([2]; all 9DR-treated groups) was “higher amounts of proBMP-2 than the control group”, the “ALP activity induced in C2C12 cells by conditioned medium versus control group” value [3] was “equivalent or elevated levels of ALP over the control group” and the “BMP-2 in long-term culture medium versus control flask” value [4, 7] was “higher in the 9DR-treated flask than the control flask”. For the same compound, the “proBMP-2 in long-term culture medium versus control flask” value [4, 7] was “higher proBMP-2 concentration in comparison to the control”, the “BMP-2 level in long-term conditioned medium” value [4, 8] was “further increased” and the “proBMP-2 level in long-term conditioned medium” value [4, 8] was “further increased”. For the same compound, the “BMP-2 in long-term culture medium, crossover experiment” value [4, 9] was “elevated concentrations”, the “proBMP-2 in long-term culture medium, crossover experiment” value [4, 9] was “elevated concentrations” and the “intracellular BMP-2 versus control group” value [5] was “significantly lower amounts”. The “intracellular proBMP-2 versus control group” value [5] was “significantly lower amounts”.
